# ± gives the standard deviation of the averaged measurements. This is a selection; strong and weak results do not stand in their true shares.
# Chains of the proteins cited; added tags and fusions are not shown. Lines headed by an entry give the natural chain unless they say otherwise; changes in a name come on top.
# UniProt P15151: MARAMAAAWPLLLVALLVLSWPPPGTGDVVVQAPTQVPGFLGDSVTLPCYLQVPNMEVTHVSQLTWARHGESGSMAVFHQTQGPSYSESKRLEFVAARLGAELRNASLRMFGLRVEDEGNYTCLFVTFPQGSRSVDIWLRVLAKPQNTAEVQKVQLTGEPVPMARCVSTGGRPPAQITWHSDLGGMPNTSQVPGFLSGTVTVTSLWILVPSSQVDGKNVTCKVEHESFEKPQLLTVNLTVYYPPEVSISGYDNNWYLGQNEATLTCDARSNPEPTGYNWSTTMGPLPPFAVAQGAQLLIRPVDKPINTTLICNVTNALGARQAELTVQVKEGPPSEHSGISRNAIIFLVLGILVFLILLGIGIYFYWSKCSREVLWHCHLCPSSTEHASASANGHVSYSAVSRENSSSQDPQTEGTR
# UniProt Q7Z3E5: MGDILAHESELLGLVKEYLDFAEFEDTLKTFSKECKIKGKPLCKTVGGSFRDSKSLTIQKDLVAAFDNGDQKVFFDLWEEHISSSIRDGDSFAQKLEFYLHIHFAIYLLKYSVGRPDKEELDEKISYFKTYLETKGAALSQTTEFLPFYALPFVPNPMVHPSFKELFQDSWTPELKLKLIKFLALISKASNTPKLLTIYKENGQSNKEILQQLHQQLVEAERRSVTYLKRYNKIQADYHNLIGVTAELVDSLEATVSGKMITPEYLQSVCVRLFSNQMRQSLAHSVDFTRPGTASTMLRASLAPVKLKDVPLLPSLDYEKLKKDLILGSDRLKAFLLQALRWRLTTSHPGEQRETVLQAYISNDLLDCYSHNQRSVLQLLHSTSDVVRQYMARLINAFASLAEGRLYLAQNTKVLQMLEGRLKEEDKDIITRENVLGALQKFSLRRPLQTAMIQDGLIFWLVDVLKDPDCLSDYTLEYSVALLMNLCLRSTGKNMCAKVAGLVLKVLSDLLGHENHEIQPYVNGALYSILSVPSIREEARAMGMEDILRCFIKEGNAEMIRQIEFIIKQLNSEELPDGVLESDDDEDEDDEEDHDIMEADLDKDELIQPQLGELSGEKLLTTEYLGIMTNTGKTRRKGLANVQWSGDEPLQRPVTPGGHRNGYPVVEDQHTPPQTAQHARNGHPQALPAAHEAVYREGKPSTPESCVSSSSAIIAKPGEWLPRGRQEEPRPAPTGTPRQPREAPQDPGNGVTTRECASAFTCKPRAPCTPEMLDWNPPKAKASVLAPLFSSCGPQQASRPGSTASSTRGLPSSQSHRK
# UniProt Q9Y388: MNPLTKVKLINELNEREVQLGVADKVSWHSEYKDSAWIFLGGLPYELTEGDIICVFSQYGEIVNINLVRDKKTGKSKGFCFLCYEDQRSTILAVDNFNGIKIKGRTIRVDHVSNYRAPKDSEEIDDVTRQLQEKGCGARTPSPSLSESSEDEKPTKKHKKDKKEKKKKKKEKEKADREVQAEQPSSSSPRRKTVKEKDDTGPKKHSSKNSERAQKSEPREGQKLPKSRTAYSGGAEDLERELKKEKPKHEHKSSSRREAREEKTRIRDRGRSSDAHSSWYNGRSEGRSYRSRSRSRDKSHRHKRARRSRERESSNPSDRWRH
# UniProt Q9NP79: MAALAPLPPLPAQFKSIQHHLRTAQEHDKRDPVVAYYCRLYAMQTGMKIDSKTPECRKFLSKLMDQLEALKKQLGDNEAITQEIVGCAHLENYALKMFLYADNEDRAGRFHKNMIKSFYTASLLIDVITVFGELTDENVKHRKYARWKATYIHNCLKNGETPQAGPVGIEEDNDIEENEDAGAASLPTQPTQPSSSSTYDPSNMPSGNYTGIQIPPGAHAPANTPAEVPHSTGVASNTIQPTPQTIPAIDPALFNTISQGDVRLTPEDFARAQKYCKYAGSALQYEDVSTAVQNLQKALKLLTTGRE
# UniProt Q15345: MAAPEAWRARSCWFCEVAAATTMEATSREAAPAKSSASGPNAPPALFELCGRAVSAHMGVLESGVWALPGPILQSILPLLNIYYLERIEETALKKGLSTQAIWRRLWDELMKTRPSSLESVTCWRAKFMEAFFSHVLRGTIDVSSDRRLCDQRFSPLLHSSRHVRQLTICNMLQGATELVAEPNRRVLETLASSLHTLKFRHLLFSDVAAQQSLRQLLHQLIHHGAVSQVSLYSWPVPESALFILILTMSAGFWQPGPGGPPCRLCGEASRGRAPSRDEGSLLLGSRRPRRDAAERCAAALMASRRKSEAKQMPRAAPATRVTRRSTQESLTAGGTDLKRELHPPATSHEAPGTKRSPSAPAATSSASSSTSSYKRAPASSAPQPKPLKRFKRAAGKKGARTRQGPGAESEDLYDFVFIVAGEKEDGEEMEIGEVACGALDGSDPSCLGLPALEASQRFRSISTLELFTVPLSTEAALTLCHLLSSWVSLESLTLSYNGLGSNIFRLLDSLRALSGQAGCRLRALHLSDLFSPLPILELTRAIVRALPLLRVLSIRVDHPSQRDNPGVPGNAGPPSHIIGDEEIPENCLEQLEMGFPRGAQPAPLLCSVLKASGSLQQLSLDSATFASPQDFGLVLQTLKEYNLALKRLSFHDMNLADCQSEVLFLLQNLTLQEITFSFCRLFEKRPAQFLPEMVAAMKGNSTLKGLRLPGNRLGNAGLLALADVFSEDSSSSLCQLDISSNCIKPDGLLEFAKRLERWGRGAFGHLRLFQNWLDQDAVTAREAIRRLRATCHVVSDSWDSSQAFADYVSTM
# UniProt P81877: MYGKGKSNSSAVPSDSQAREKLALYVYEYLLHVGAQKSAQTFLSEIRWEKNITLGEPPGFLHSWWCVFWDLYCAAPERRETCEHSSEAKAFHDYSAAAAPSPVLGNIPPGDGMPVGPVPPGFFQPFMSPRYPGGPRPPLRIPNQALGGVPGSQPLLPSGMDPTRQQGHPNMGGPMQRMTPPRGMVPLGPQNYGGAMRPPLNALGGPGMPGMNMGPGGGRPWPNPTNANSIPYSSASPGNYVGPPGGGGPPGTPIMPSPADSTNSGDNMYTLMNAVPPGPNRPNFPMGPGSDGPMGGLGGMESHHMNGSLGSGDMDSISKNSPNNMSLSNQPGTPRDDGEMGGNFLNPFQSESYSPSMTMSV
# UniProt Q9H3P2, whole entry: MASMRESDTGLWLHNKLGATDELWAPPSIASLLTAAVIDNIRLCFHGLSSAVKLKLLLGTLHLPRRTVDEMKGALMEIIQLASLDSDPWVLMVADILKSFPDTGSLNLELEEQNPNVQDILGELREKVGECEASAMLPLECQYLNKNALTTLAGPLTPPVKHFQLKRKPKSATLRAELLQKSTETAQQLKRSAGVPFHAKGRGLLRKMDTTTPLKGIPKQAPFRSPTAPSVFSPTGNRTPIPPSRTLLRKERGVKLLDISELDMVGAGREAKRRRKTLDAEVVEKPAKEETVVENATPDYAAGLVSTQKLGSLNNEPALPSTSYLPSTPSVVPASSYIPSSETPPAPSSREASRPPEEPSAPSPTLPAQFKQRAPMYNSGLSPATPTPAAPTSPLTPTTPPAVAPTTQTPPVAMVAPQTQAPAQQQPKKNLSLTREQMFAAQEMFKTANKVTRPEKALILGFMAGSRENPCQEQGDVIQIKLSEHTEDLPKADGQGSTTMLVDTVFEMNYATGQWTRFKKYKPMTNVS
# UniProt Q9P0P8: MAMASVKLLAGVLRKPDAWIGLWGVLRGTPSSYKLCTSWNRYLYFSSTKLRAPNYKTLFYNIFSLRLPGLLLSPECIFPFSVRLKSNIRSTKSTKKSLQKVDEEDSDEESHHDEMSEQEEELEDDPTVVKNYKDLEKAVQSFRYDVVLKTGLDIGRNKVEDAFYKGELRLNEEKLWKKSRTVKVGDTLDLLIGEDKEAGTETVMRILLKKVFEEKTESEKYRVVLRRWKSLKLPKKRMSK
# UniProt P39656: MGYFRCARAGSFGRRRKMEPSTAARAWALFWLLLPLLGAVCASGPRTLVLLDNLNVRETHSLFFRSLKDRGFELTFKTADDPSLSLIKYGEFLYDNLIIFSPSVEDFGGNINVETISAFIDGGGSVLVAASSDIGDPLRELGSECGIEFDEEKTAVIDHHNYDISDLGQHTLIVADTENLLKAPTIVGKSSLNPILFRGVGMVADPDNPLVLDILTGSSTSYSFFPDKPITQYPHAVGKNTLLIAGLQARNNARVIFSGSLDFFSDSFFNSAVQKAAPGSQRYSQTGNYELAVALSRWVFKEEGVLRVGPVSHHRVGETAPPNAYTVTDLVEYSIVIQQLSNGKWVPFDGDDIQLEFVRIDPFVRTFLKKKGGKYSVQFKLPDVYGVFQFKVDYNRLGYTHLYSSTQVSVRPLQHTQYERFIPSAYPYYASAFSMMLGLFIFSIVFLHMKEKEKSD
# UniProt Q15185: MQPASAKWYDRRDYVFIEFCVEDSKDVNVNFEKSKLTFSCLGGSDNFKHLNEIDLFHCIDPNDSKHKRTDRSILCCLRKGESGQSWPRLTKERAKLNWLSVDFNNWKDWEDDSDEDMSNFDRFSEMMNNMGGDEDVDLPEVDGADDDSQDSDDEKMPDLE
# UniProt Q70IA6: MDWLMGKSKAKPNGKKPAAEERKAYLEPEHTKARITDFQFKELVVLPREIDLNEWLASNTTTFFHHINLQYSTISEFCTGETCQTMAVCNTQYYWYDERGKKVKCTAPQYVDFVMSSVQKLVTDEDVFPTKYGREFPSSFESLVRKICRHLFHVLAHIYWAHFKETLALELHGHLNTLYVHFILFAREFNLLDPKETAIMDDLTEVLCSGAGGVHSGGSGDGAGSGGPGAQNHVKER
# UniProt P62333, whole entry: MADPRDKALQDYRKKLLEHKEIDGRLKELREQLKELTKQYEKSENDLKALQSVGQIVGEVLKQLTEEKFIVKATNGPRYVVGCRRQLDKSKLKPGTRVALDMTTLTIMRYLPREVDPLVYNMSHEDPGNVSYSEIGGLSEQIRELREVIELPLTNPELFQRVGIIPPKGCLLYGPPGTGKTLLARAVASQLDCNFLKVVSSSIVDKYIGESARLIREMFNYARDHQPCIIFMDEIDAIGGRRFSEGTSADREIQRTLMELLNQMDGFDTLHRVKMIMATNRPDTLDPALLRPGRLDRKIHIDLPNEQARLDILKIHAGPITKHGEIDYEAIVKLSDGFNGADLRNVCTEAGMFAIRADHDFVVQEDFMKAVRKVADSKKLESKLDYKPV
# UniProt P55198: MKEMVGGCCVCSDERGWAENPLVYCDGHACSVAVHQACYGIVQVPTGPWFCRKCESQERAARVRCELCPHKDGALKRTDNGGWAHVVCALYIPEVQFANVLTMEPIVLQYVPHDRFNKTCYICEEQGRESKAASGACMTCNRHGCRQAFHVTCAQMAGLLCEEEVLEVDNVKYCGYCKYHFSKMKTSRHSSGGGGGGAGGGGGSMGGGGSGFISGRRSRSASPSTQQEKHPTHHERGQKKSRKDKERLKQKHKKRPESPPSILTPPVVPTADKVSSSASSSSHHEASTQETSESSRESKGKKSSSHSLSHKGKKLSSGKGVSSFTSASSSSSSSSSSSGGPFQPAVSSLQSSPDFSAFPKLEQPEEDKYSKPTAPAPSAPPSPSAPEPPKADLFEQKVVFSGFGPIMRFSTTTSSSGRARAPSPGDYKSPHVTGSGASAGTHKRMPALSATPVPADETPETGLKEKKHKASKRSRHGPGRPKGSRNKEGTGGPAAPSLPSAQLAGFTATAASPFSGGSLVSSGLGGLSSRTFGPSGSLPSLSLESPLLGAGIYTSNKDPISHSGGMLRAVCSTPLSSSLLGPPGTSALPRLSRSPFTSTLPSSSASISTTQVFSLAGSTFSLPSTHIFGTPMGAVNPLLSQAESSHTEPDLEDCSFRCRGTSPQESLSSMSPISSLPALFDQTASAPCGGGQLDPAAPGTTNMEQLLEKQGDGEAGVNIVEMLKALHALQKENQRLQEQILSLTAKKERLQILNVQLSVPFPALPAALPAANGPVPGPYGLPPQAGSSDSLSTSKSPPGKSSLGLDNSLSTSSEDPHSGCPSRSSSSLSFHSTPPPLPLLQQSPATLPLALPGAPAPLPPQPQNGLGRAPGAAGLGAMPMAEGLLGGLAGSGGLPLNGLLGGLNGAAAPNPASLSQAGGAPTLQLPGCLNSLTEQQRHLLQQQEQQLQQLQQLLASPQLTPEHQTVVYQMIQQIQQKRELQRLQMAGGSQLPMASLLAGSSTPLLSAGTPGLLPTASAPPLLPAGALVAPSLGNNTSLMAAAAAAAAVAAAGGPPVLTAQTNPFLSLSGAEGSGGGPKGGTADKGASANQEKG
# UniProt Q5T7M9: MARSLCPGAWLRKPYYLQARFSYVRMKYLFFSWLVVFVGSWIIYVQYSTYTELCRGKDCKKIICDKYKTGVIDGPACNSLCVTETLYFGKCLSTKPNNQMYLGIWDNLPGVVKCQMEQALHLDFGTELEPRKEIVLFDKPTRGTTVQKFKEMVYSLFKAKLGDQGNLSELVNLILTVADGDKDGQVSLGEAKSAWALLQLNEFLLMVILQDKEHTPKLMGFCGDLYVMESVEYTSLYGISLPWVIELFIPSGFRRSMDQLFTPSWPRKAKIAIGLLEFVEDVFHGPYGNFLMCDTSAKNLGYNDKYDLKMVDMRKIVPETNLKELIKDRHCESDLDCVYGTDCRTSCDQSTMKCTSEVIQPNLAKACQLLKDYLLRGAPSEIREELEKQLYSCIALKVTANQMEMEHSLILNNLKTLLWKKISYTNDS
# Compound: Nc1ncnc2c1ncn2[C@@H]1O[C@H](COP(=O)(O)OP(=O)(O)OP(=O)(O)O)[C@@H](O)[C@H]1O [adenosine triphosphate]
# Test: NP40-soluble protein abundance relative to vehicle (solubility fold change) (ratio); higher = more soluble protein in presence of ATP
# Conditions: concentration: 1mM
# In short: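 Values are fold changes against the detergent-processed vehicle, based on vsn-normalised intensities. Jurkat crude lysate was treated at eight concentrations from 0.1 to 10 mM (10 min at room temperature, then 3 min at 37 °C), solubilised with 0.8% NP40 and benzonase, ultracentrifuged and analysed by TMT-labelled LC-MS/MS over three independent experiments.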
row,Target,NP40-soluble protein abundance
1,A0A087WZ62,0.984 ± 0.058
2,A0A087WVF4|O14646 and related entries (UniProt O14646),0.982 ± 0.03
3,A0A0B4J294|H3BP13 and related entries (UniProt Q9UL33),0.96 ± 0.024
4,A0A087WY58|P51956 and related entries (UniProt P51956),0.944 ± 0.14
5,A0A0A0MSA9|A0A0C4DG49|P15151 and related entries (UniProt P15151),0.994 ± 0.058
6,A0A087X243|P09211 (UniProt P09211),0.983 ± 0.054
7,A0A0A0MRN1|Q5T8I9 (UniProt Q5T8I9),0.989 ± 0.08
8,A0A087X1I8|Q7Z3E5 and related entries (UniProt Q7Z3E5),0.99 ± 0.077
9,A0A087WUM0|A0A087WYV9|A0A087X1F5 (UniProt P57105),0.939 ± 0.077
10,A0A087WUI1|Q9Y388 (UniProt Q9Y388),1.2 ± 0.07
11,A0A087WUH0|P28715 (UniProt P28715),0.973 ± 0.043
12,A0A087WY55|Q9NP79 (UniProt Q9NP79),0.964 ± 0.09
13,A0A087WVB5|Q75MD7 and related entries (UniProt Q8WXX7),0.963 ± 0.12
14,A0A087WTU1|A0A087X0S7|A0A0B4J2G4|A0A0C4DH00|Q15345 and related entries (UniProt Q15345),1.02 ± 0.056
15,A0A087WXI0 (UniProt Q7Z6P3),0.978 ± 0.055
16,A0A087X159|P81877 and related entries (UniProt P81877),1.06 ± 0.16
17,A0A087X1K6|Q9Y2Y9 (UniProt Q9Y2Y9),0.898 ± 0.033
18,A0A0C4DFX9|Q9H3P2 (UniProt Q9H3P2),0.999 ± 0.048

row,Target,NP40-soluble protein abundance
1,A0A075B7B5|A2RUF3 and related entries (UniProt O75044),1.03 ± 0.019
2,A0A0A0MRZ4|E7EMV7 and related entries (UniProt Q15025),0.961 ± 0.1
3,A0A0A0MRU8|Q9Y4X4 (UniProt Q9Y4X4),1.06 ± 0.24
4,A0A087WUD1 (UniProt Q6DD87),0.968 ± 0.059
5,A0A0D9SEI0|Q9P0P8 (UniProt Q9P0P8),0.889 ± 0.041
6,A0A0C4DGS1|P39656 (UniProt P39656),1.04 ± 0.12
7,A0A0A0MTB0|A0A0J9YYI4|D6RHG7 and related entries (UniProt Q86VE9),0.95 ± 0.043
8,A0A087WYT3|Q15185 (UniProt Q15185),0.9303 ± 0.0027
9,A0A087WYP2|Q8IZQ5 (UniProt Q8IZQ5),1.05 ± 0.05
10,A0A0A0MQU4|Q96I15 (UniProt Q96I15),0.9864 ± 0.0094
11,A0A087WVS8|Q70IA6 and related entries (UniProt Q70IA6),0.987 ± 0.019
12,A0A087X2I1|P62333 (UniProt P62333),0.945 ± 0.077
13,A0A087WW39|P55198 (UniProt P55198),1.175 ± 0.0095
14,A0A0A0MSK6|Q13017 and related entries (UniProt Q13017),1.05 ± 0.065
15,A0A0B4J2A0|Q9UHJ6 (UniProt Q9UHJ6),1 ± 0.042
16,A0A0A0MRW1|Q5T593 and related entries (UniProt Q8IW50),0.8988 ± 0.0025
17,A0A0A0MS18|C9JYJ0 and related entries (UniProt O15315),0.942 ± 0.019
18,A0A087WZ97|A0A087WZK6|A0A087X2C2|Q5T7M9 (UniProt Q5T7M9),0.973 ± 0.072

# Same assay, conditions: concentration: 2mM
row,Target,NP40-soluble protein abundance
1,A0A087WVF4|O14646 and related entries (UniProt O14646),1.03 ± 0.047
2,A0A0B4J294|H3BP13 and related entries (UniProt Q9UL33),0.969 ± 0.055
3,A0A087WY58|P51956 and related entries (UniProt P51956),0.9985 ± 0.0021
4,A0A0A0MSA9|A0A0C4DG49|P15151 and related entries (UniProt P15151),0.9601 ± 0.0073
5,A0A087X243|P09211 (UniProt P09211),0.95 ± 0.017
6,A0A0A0MRN1|Q5T8I9 (UniProt Q5T8I9),0.983 ± 0.02
7,A0A087X1I8|Q7Z3E5 and related entries (UniProt Q7Z3E5),1.01 ± 0.063
8,A0A087WUM0|A0A087WYV9|A0A087X1F5 (UniProt P57105),0.93 ± 0.067
9,A0A087WUI1|Q9Y388 (UniProt Q9Y388),1.24 ± 0.097
10,A0A087WUH0|P28715 (UniProt P28715),0.974 ± 0.011
11,A0A087WY55|Q9NP79 (UniProt Q9NP79),0.958 ± 0.055
12,A0A087WVB5|Q75MD7 and related entries (UniProt Q8WXX7),0.987 ± 0.04
13,A0A087WTU1|A0A087X0S7|A0A0B4J2G4|A0A0C4DH00|Q15345 and related entries (UniProt Q15345),0.956 ± 0.033
14,A0A087WXI0 (UniProt Q7Z6P3),0.988 ± 0.059
15,A0A087X159|P81877 and related entries (UniProt P81877),0.979 ± 0.076
16,A0A087X1K6|Q9Y2Y9 (UniProt Q9Y2Y9),0.938 ± 0.06
17,A0A0C4DFX9|Q9H3P2 (UniProt Q9H3P2),0.94 ± 0.028
18,A0A075B7B5|A2RUF3 and related entries (UniProt O75044),1.04 ± 0.021

row,Target,NP40-soluble protein abundance
1,A0A0A0MRZ4|E7EMV7 and related entries (UniProt Q15025),0.933 ± 0.013
2,A0A0A0MRU8|Q9Y4X4 (UniProt Q9Y4X4),1.08 ± 0.2
3,A0A087WUD1 (UniProt Q6DD87),0.968 ± 0.014
4,A0A0D9SEI0|Q9P0P8 (UniProt Q9P0P8),0.96 ± 0.068
5,A0A0C4DGS1|P39656 (UniProt P39656),1.01 ± 0.1
6,A0A0A0MTB0|A0A0J9YYI4|D6RHG7 and related entries (UniProt Q86VE9),0.972 ± 0.082
7,A0A087WYT3|Q15185 (UniProt Q15185),0.922 ± 0.033
8,A0A087WYP2|Q8IZQ5 (UniProt Q8IZQ5),1.12 ± 0.021
9,A0A0A0MQU4|Q96I15 (UniProt Q96I15),0.966 ± 0.017
10,A0A087WVS8|Q70IA6 and related entries (UniProt Q70IA6),0.948 ± 0.04
11,A0A087X2I1|P62333 (UniProt P62333),0.883 ± 0.035
12,A0A087WW39|P55198 (UniProt P55198),1.11 ± 0.16
13,A0A0A0MSK6|Q13017 and related entries (UniProt Q13017),1.02 ± 0.035
14,A0A0B4J2A0|Q9UHJ6 (UniProt Q9UHJ6),0.984 ± 0.056
15,A0A0A0MRW1|Q5T593 and related entries (UniProt Q8IW50),0.866 ± 0.059
16,A0A0A0MS18|C9JYJ0 and related entries (UniProt O15315),0.999 ± 0.05
17,A0A087WZ97|A0A087WZK6|A0A087X2C2|Q5T7M9 (UniProt Q5T7M9),1.05 ± 0.09
